{
  "sequences": {"note": "The chains behind the UniProt entries cited, without tags or fusion partners. Residues count along the entry.", "UniProt P18848, residues 1-275": "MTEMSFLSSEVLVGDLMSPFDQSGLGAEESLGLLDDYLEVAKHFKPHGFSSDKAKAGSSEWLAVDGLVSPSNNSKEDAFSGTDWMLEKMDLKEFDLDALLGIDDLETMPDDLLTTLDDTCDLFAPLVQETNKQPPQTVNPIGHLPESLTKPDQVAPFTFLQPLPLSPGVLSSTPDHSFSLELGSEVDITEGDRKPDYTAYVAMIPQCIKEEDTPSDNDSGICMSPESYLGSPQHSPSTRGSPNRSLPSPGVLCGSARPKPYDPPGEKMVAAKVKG"},
  "source": "paper PMC8881488",
  "about": "“Intricate coupling between the transactivation and basic-leucine zipper domains governs phosphorylation of transcription factor ATF4 by casein kinase 2” (The Journal of Biological Chemistry, 2022)",
  "target": "ATF4-275 (isolated transactivation domain of activating transcription factor 4) (human) (UniProt P18848)",
  "experiment": "SEC-MALS; ATF4-275 at 3, 6 and 9 mg/ml (~100, 200, 300 uM); Shodex 803 column; 20 mM MES pH 6.5, 50 mM NaCl; 20 °C; both purified",
  "note": "These are yes or no findings as the source states them, for the method shown.",
  "data": [
    {"substance": "ATF4-275 (isolated transactivation domain of activating transcription factor 4) (from UniProt P18848 1-275) (domain or fragment)", "values": [
      {"measurement": "binding", "result": "no binding (tested: 3, 6 and 9 mg/ml (~100, 200, 300 uM))"}
    ]}
  ]
}
